# Publication PMC8179133
# Chains of the proteins cited; added tags and fusions are not shown. Residues count along the entry.
# UniProt P02769, residues 25-607: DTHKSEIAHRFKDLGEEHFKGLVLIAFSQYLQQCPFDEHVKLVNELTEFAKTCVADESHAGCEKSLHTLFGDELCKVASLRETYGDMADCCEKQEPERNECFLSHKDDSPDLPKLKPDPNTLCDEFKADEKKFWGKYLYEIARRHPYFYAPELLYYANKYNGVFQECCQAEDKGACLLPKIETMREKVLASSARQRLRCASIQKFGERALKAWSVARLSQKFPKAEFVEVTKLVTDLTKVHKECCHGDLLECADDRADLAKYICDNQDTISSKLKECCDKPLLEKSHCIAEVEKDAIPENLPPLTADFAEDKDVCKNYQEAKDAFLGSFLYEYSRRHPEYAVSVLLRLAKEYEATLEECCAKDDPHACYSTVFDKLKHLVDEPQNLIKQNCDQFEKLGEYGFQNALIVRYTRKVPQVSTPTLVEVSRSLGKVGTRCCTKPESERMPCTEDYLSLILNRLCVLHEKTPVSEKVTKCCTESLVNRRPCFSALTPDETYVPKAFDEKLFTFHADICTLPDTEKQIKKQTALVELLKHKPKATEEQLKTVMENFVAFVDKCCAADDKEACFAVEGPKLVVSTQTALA
# UniProt P15502, residues 27-786: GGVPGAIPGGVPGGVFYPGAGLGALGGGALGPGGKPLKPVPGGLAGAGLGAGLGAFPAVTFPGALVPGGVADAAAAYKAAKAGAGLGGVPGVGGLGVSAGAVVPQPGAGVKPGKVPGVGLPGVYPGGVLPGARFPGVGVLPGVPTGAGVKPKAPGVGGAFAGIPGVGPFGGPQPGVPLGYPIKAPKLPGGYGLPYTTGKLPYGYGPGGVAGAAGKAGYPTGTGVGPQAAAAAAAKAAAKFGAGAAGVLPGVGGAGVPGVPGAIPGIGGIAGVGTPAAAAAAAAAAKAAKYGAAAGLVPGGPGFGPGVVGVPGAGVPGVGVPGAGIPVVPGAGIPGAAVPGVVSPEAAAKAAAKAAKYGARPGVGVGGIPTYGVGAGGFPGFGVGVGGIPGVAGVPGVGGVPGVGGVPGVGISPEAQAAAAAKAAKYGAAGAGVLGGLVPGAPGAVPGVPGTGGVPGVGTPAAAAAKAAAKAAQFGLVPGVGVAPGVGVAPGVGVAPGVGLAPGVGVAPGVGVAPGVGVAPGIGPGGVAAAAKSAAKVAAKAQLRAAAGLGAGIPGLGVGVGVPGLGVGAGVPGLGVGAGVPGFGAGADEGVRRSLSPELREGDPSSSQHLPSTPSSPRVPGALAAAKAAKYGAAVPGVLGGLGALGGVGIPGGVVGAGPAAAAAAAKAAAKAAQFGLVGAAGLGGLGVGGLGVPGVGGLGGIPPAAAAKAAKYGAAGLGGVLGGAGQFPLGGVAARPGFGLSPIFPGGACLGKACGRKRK
# These are yes or no findings as the source states them, for the method shown.
# What was measured:
# [1] = target: bovine serum albumin (bovine) (UniProt P02769); assay: ELISA; putative ligands (5 µg/mL in carbonate-bicarbonate buffer, 50 µL) adsorbed on MaxiSorp plates O/N at 4 °C; blocked 1 h with 3% BSA or 1% gelatin in PBS; serial twofold dilutions of 6His-PilB (40 to 0.625 µg/mL) for 2 h at 37 °C; detected with anti-6His antibody and HRP-linked anti-rabbit IgG, read at 450 nm; Kd by nonlinear regression (One site - Total and nonspecific binding) with BSA or gelatin as nonspecific binding control; both purified
# [2] = target: elastin from human skin (human) (UniProt P15502); assay: as above
substance,measurement,setting,value
6His-PilB_(36-461) (from UniProt A0A0B7GP99 36-461) (domain or fragment),binding,[1],no binding (tested: 40 µg/mL (highest concentration of PilB))
same,binding,[2],no binding (tested: 40 µg/mL (highest concentration of PilB))
